Measured values taken from PubChem BioAssay AID540275 (National Center for Advancing Translational Sciences (NCATS), 2011).
About 620 (0.19%) of roughly 320,000 compounds were called active. The shares of active, inactive and inconclusive entries below differ from those in the screen. No stated cut-off is given here; in the data, active means activation above about 80%; inconclusive means between about 30% and that limit; inactive means weaker than that.
Further: 0% is about no effect.

Chains of the proteins cited; added tags and fusions are not shown.
UniProt Q8NER1, whole entry, looked up: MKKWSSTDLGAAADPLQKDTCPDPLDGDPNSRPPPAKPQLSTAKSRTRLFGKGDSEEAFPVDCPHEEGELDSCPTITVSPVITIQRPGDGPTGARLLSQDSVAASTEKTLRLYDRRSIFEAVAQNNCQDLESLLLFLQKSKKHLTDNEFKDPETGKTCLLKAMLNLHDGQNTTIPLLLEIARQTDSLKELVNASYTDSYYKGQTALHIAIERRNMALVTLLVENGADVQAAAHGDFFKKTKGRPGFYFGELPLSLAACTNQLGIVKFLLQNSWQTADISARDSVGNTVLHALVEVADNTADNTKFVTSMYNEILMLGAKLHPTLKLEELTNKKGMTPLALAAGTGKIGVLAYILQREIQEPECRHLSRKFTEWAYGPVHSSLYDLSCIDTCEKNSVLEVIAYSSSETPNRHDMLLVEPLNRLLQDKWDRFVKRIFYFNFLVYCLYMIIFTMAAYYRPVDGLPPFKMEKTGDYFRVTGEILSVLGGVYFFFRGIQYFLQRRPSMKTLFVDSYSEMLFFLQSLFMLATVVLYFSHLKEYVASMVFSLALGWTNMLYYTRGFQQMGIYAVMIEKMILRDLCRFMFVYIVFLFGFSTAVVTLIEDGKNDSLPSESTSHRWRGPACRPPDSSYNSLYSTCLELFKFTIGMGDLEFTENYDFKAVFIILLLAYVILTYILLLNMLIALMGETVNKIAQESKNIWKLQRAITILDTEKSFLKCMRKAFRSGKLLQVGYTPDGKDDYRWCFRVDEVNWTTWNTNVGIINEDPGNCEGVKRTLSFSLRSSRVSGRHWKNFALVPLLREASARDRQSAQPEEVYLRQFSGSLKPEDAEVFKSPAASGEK

Each compound was assayed against Transient receptor potential cation channel subfamily V member 1 (Homo sapiens) (UniProt Q8NER1) (assay: HTS Assay for Compounds that Act as Agonists of the Vanilloid Receptor 1). Settings: TRPV1-expressing cells, Fluo-8 calcium influx, agonist mode; at 8.33 µM, hits give high values.
Outline: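 Fluo-8 calcium influx in TRPV1-expressing cells, kinetic read (ex 480/em 520 nm). Compound added and read 3 min for agonist activity, followed by capsaicin at EC20 final and 2 min further read for enhancement.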
With `O=C(OCc1nnc(-c2ccccc2)o1)c1cc(Cl)ccc1[N+](=O)[O-]` the activation was inconclusive: 45.2%. With `O=C(Nc1ccc(Cl)c(S(=O)(=O)N2CCOCC2)c1)c1cn2ccccc2n1` the activation was inconclusive: 45%. With `Cc1ccc(SCC(=O)OCC(=O)NCc2cccs2)cc1` the activation was inconclusive: 47.2%. For `NNC(=O)c1cncc(Br)c1`, the activation was inconclusive: 32%. With `CC(C)Cc1ccc(C(=O)NCCOc2ccccc2)o1` the activation was inconclusive: 30.7%. For `COc1ccc(NC(=O)CN(C)CC(=O)N(C)C2(C#N)CCC(C)CC2)cc1` (stereo unspecified), the activation was inactive: 4.24%. In the case of `CCOc1ccccc1NS(=O)(=O)c1c(C)noc1C`, the activation was inactive: -1.3%. With `CCc1ccc(-c2nnn(CC(=O)N(C3CCCC3)C3CCS(=O)(=O)C3)n2)cc1` (stereo unspecified) the activation was inactive: 1.36%. `Cc1ccc(C(=O)CC(=O)c2ccccc2)cc1` was tested, and the activation was active: 80.7%. `CC(=O)CCc1oc2ccc([N+](=O)[O-])cc2c1-c1ccc(C)o1` was tested, and the activation was inconclusive: 30.4%. In the case of `O=C(C1=C[C@H](c2csc3ccccc23)C[C@H](OCCCCO)O1)N1CCN(Cc2ccccc2)CC1`, the activation was inconclusive: 43.2%. For `Cn1c(C(=O)Nc2ccc3c(c2)OCO3)cc2sccc21`, the activation was inconclusive: 39.8%. With `CCOC(=O)c1c(C)oc2ccc(OCC(N)=O)cc12` the activation was inconclusive: 37.7%. In the case of `CC(=O)NC(=S)Nc1ccc(S(=O)(=O)N2CCOCC2)cc1`, the activation was inactive: 2.71%. For `CCCC(=O)Nc1ccc(Cl)c(NC(=O)c2ccc(Br)o2)c1`, the activation was inconclusive: 45.2%. `O=C(/C=C/c1ccccc1Cl)Nc1cccc(O)c1` was tested, and the activation was inconclusive: 70%. For `O=C(NCCc1ccc(Cl)cc1)C1(c2ccccc2)CC1`, the activation was inconclusive: 53.4%. `C/C(Cn1cnc([N+](=O)[O-])n1)=N\NC(=O)c1ccccc1O` was tested, and the activation was inactive: 26.6%. In the case of `COc1cc2c(cc1OC)C(C)N(C(=O)Cc1ccc(C(F)(F)F)cc1)CC2` (stereo unspecified), the activation was inconclusive: 30.4%. In the case of `CCOCCCN1C(=O)CN(C2CCC(C)CC2)C(=O)C1c1ccc(C)cc1` (stereo unspecified), the activation was inconclusive: 37.9%. For `O=C(Nc1cccc(F)c1)c1ccccc1`, the activation was inconclusive: 38.4%. `O=C(CSc1ccccn1)N1CCN(c2ccc(Cl)cc2)CC1` was tested, and the activation was inconclusive: 34.1%. With `COc1ccc(NC(=O)c2cc([N+](=O)[O-])ccc2O)cc1` the activation was inactive: 0.57%. With `CNc1ncnc2sc(-c3ccccc3)cc12` the activation was inconclusive: 44.5%. In the case of `Fc1ccc(C2C3=C(Nc4ncnn42)c2ccccc2OC3c2ccncc2)cc1` (stereo unspecified), the activation was inconclusive: 63.3%. `O=C(NCCS(=O)(=O)c1ccc(Br)cc1)c1ccc(Cl)cc1Cl` was tested, and the activation was inconclusive: 65.6%. For `CC(C)(C)c1cc(CCC(=O)NCc2ccccn2)cc(C(C)(C)C)c1O`, the activation was inconclusive: 47.8%. For `Cc1cc(C)cc(N(C(=O)Cc2cccs2)C(C(=O)NC2CCCC2)c2ccc(C)o2)c1` (stereo unspecified), the activation was inconclusive: 49.5%. `O=C(Nc1nc2c(F)cccc2s1)c1ccco1` was tested, and the activation was inconclusive: 31.5%. In the case of `COc1ccc(-c2cn3cc(C)ccc3n2)cc1Br`, the activation was inconclusive: 33.3%. For `CC(=O)c1ccc(Nc2ncnc3c2oc2ccccc23)cc1`, the activation was active: 87.8%. With `CCOC(=O)/C(=C/C=C1\Sc2cc(C)c(C)cc2N1CC)C(C)=O` the activation was active: 106%. In the case of `COc1ccc(C(CC(=O)N2CCN(c3ccccc3)CC2)c2c(O)cc(OC)cc2OC)cc1` (stereo unspecified), the activation was inconclusive: 33.7%. For `Cc1ccc(-n2ncc3c(SCc4ccccc4)ncnc32)cc1`, the activation was inactive: -1.7%. In the case of `Cc1ccc(N(Cc2ccccc2)C(=O)Cc2ccc(S(=O)(=O)N3CCOCC3)s2)cc1`, the activation was inconclusive: 52.9%. For `Cc1cc(Cl)ccc1OCCCC(=O)N1CCN(C)CC1`, the activation was inconclusive: 42.1%. In the case of `N=c1c(C(=O)NCC2CCCO2)cc2c(=O)n3ccccc3nc2n1Cc1ccc(F)cc1` (stereo unspecified), the activation was inconclusive: 78.9%. For `CCC(C)Sc1ccc([C@H]2N[C@@](Cc3ccccc3)(C(=O)OC)[C@H]3C(=O)N(CC)C(=O)[C@@H]23)cc1` (stereo partly specified), the activation was inconclusive: 38.7%. With `Cc1cccc(C)c1OCC(=O)NC1CC1` the activation was inconclusive: 57.9%. With `O=C(c1cn(-c2ccccc2)nc1-c1ccc(Br)cc1)N1CCOCC1` the activation was inconclusive: 31.8%. With `COc1ccc(Cl)cc1NC(=O)c1ccccc1C` the activation was inactive: 9.78%. In the case of `Cc1ccccc1-c1ccc(C(=O)Nc2cccc(F)c2)o1`, the activation was inconclusive: 63%. `Cc1cc(SCC(=O)NC2(C#N)CCCCC2)nc2c(C)cccc12` was tested, and the activation was inconclusive: 42.7%. For `CCCOc1ccccc1/C=C1\SC(N2CCCCC2)=NC1=O`, the activation was inconclusive: 67.1%. For `COCCCn1c(N)c(-c2nc3ccccc3n2C)c2nc3ccccc3nc21`, the activation was inconclusive: 32.9%. For `CC(NC(=O)Nc1ccc([N+](=O)[O-])cc1)C(c1ccccc1)N1CCOCC1` (stereo unspecified), the activation was inconclusive: 57%.
